Results published in paper doi:10.1101/2024.08.29.610268.

System: Hsh49 + Cus1
Experiment: UV crosslinking MS
Conditions: 254 nm, 10 min, protein:RNA 4:1; letters put together from the description

Question: Does “GGACGAAUCUCUUUGCCUUUUGGCUUAGAUCAAGUGUAGUAUCUGUUCUUCUAG [U2 47Nt-snRNA]” bind?
Answer: binds

Construct, isoform or probe ends are uncertain for at least one entry.
